According to article doi:10.64898/2025.12.16.694471:
No constants are given. Whether binding was seen depends on the method and setting. Binding seen in cells or lysates may run through a third protein. Some binding calls cover weakened binding; strength is not graded here. Where a sequence is shown, tags or fusion partners need not be part of it.

Biological target: T1, FLAG-Piwi (Drosophila melanogaster) (UniProt Q9VKM1)
T1 sequence: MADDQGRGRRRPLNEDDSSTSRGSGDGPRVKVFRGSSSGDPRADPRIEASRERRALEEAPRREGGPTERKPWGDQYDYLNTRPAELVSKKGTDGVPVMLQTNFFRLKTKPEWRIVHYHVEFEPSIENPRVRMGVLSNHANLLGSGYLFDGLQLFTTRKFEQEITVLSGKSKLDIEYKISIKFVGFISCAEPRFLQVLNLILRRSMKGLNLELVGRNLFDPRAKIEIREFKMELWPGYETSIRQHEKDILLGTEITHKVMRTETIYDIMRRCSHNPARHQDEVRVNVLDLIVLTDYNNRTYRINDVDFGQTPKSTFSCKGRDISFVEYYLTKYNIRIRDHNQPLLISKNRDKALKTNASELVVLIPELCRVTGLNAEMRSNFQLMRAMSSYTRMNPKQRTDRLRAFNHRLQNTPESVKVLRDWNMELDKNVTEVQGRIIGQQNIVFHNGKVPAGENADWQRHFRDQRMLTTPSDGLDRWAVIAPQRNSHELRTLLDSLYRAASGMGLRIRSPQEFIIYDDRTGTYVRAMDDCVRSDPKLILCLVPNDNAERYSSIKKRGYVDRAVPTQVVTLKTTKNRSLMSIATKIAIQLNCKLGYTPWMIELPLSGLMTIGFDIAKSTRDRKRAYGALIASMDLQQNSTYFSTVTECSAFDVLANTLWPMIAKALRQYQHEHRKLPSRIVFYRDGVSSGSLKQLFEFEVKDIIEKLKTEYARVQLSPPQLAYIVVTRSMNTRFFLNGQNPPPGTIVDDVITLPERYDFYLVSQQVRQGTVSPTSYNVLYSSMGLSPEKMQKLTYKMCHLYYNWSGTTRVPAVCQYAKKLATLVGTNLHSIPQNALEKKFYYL
Assay: co-IP

- binding: binds
B1: Maelstrom (protein, UniProt Q9VNS0 1-459)
chain: MAPKKHSGFMMFVNEWRNRNAEGRRMTLAQAVSHCGTIWEKMNTQQRGPYNSGGKDANVAQRAKRESSNGHGQVDKAQREATESLMDMKRTIERLVLNAKMSHDLENAKFVFVAFNYFTKALTTDVYVPAEFAACEYSLKEGIRSIYSTMIDPGQIIFGQGSDALLHSSTTHDLPLPPNALGEKNMTKLYRNIVDYLSKCQGKGKTLVVFTPAENITMVKSCFRYLECDDDFRDGGEKIQVFDIQYLLFILKKEVMNVADLNDEKINKFATDAFFKKDFFEFTAGIACQYHEDNDRTKYCTQSMVTRWAYTFTDFMCGDLAITVQPGKHIPAQTKPNYLIISSYASSLDHESSFDSFYSLPGSGVKKESQPEACSLSSSRLSVASSSYKPIDHTSFAANLNEVSEFPSLGMRNSSKHHGIAASAQREWNARNLPTHSRLIRKVSDNDFSVNGADGKLKK
